Reference: PubChem BioAssay AID540303 (National Center for Advancing Translational Sciences (NCATS), 2011)
About 1,000 (0.3%) of roughly 330,000 compounds were called active. Inconclusive results, whose numbers are uncertain, are shown with a selection of clear calls. Calls follow the shape of the dose curve; as a rule, active = well fitted inhibition curve with a large enough effect; inconclusive = small, poorly fitted or top-dose-only effect; inactive = no such curve, though single readings can be large or run the other way; tested in mouse RAW 264.7 cells. A potency beside an inconclusive call is a rough fit, not a confirmed value.

Assay: qHTS for Inhibitors of Cell Surface uPA Generation; also: nearly all actives have a fitted effect of over 55% in size
Settings: cell surface uPA generation assay; series mostly up to 38.3 µM; activity change, negative = inhibition: at the top concentration
In short: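 Using RAW 264.7 macrophages, the screen measures whether compounds keep cellular ATP up by preventing uPA-driven LF translocation. Treatment lasted 24 h at 37 C, with a final top concentration of 38.3 uM, and luminescence was the readout.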
% is scaled to controls: 0 for no effect and ±100 for the full control effect; potency is read from the fitted curve at half-maximal effect.

**Q.** For O=C(CC1C(=O)Nc2ccccc2N1CC(=O)N1CCCC1)Nc1ccc(Br)cc1 (stereo unspecified), which Potency is on record?
**A.** inconclusive: 11.2 µM [inhibitor, partial curve, poor fit]

**Q.** Which Potency does the source give for CC(C)(C)[C@H]1COC(=O)[C@H](NC(=O)OCC2c3ccccc3-c3ccccc32)C/C=C\C[C@@H](CC(=O)N[C@@H](CO)Cc2ccccc2)C(=O)N1 here?
**A.** inconclusive: 12.6 µM [inhibitor, single point]

**Q.** Which Potency does the source give for COc1cc(OC)cc(-c2oc3cccnc3c2C#CCCO)c1 here?
**A.** inconclusive: 12.6 µM [inhibitor, partial curve, poor fit]

**Q.** With OCC1(CO)COC(/C=C/c2ccccc2)=N1 as the compound, how does the Potency read?
**A.** inconclusive: 6.31 µM [inhibitor, partial curve, poor fit]

**Q.** Which Potency does the source give for Cc1occc1-c1nnc(SC(C)C(=O)Nc2ccccc2F)o1 (stereo unspecified) here?
**A.** inconclusive: 12.6 µM [inhibitor, single point]

**Q.** With COc1cccc(N=Nc2ccc3cccnc3c2O)c1 as the compound, how does the Potency read?
**A.** inconclusive: 2.82 µM [inhibitor, full curve, poor fit]

**Q.** For CC(C)Cc1nc(N2CCN(C(=O)c3ccco3)CC2)c(C#N)c2c1CCCC2, which “activity change, negative = inhibition” value is on record?
**A.** inactive: 5.18%

**Q.** Which Potency does the source give for CC(C)CCCCCCNC(=S)Nc1ccc(S(=O)(=O)N2CCOCC2)cc1 here?
**A.** inconclusive: 22.4 µM [inhibitor, single point]

**Q.** With Cc1ccc(-c2cn3cc(C)ccc3n2)cc1 as the compound, how does the “activity change, negative = inhibition” value read?
**A.** inactive: -13%

**Q.** For CC(=O)/C=C1\N(C)c2ccc(C)cc2C1(C)C, which “activity change, negative = inhibition” value is on record?
**A.** inactive: -8.93%

**Q.** With COc1ccc(Cn2c(-c3ccc(Br)cc3)c[n+]3ccccc23)cc1 as the compound, how does the Potency read?
**A.** inconclusive: 10 µM [inhibitor, partial curve]

**Q.** For O=C(NCC(c1cccs1)N1CCOCC1)c1cnc(Cl)c(Cl)c1 (stereo unspecified), which Potency is on record?
**A.** inconclusive: 12.6 µM [inhibitor, single point]

**Q.** For COC(=O)CCC(=O)OC1(C)C(=O)C=C2C=C(C3CC3)N(C3CCCCC3)C=C2C1=O (stereo unspecified), which “activity change, negative = inhibition” value is on record?
**A.** inactive: 7.9%

**Q.** Which Potency does the source give for Cc1cccn2c(=O)c3cc(C(N)=S)c(=N)n(CCCN4CCOCC4)c3nc12 here?
**A.** inconclusive: 11.2 µM [inhibitor, partial curve, poor fit]

**Q.** For COCCn1c(N)c(S(=O)(=O)c2cccs2)c2nc3ccccc3nc21, which “activity change, negative = inhibition” value is on record?
**A.** inactive: 7.09%

**Q.** Which “activity change, negative = inhibition” value does the source give for COc1cc2c(cc1OC)-c1cc(Nc3ccccc3C)nc(=O)n1CC2 here?
**A.** inactive: -1.04%

**Q.** Which Potency does the source give for O=C(/C=C/c1ccc([N+](=O)[O-])cc1)OCC(=O)N1CCOCC1 here?
**A.** inconclusive: 14.1 µM [inhibitor, single point]

**Q.** For O=C(CSc1nc(-c2ccccc2)nc2ccc(F)cc12)Nc1ccc(C(=O)O)cc1, which “activity change, negative = inhibition” value is on record?
**A.** inactive: -0.205%

**Q.** For Cc1ncoc1C(=O)NC1CCCc2c1cnn2-c1ccc(C(C)(C)C)cc1 (stereo unspecified), which Potency is on record?
**A.** inconclusive: 10 µM [inhibitor, partial curve]

**Q.** For O=C(C[C@H]1C/C=C/CC[C@@H](Cc2ccc(F)cc2)C(=O)O[C@@H](c2ccccc2)CNC1=O)NCCO, which “activity change, negative = inhibition” value is on record?
**A.** inactive: 5.64%

**Q.** With CC(C)NC(=S)Nc1ccc2nc3n(c(=O)c2c1)CCCCC3 as the compound, how does the “activity change, negative = inhibition” value read?
**A.** inactive: 2.2%

**Q.** Which Potency does the source give for Cc1ccc(S(=O)(=O)N2CCN(S(=O)(=O)c3c(C)n[nH]c3C)CC2)cc1C here?
**A.** inconclusive: 2.82 µM [inhibitor, single point]

**Q.** Which “activity change, negative = inhibition” value does the source give for COc1ccc2cc(C(=O)N3CCC(Cc4ccccc4)CC3)[nH]c2c1 here?
**A.** inactive: 3.56%

**Q.** Which “activity change, negative = inhibition” value does the source give for CCOc1cc(CNc2ccc(N3CCCCC3)cc2)cc(Br)c1OCC(=O)NC(C)(C)C here?
**A.** inactive: -3.07%

**Q.** Which Potency does the source give for CNC(C)C(=O)NC(C(=O)N1CCCC1C(=O)Nc1ccc2ncccc2c1)C(C)C (stereo unspecified) here?
**A.** inconclusive: 14.1 µM [inhibitor, partial curve, poor fit]

**Q.** With CCOc1ccc(N(C)S(=O)(=O)c2cc(-c3cc(C)no3)ccc2OC)cc1 as the compound, how does the Potency read?
**A.** inconclusive: 7.94 µM [inhibitor, single point]

**Q.** With CCCCNC(=O)Nc1nc(SCC(=O)OCC)n[nH]1 as the compound, how does the Potency read?
**A.** inconclusive: 1.78 µM [inhibitor, partial curve, poor fit]

**Q.** For CCCNC(=O)c1noc2c1CCc1ccccc1-2, which Potency is on record?
**A.** inconclusive: 11.2 µM [inhibitor, single point]

**Q.** For COc1ccccc1NC(=O)CN1CCCCCC1, which “activity change, negative = inhibition” value is on record?
**A.** inactive: 0.408%

**Q.** Which Potency does the source give for CN(C)CCCN(C(=O)c1ccc([N+](=O)[O-])o1)c1nc2cc3c(cc2s1)OCO3 here?
**A.** inconclusive: 3.98 µM [inhibitor, partial curve]

**Q.** With Cc1ccc(/C=N/NC(=O)c2nnn(-c3nonc3N)c2C(C)C)s1 as the compound, how does the “activity change, negative = inhibition” value read?
**A.** inactive: 12%

**Q.** For Cc1ccc(S(=O)(=O)N2CCC(C(=O)Nc3ccc(C(C)C)cc3)CC2)cc1, which Potency is on record?
**A.** inconclusive: 7.94 µM [inhibitor, single point]

**Q.** With COc1ccc(CNC(=O)C[C@H]2C[C@H](C(=O)N(C(C)C)C(C)C)[C@@]3(C)c4[nH]c5cc(-c6ccco6)ccc5c4CCN3C2=O)cc1OC as the compound, how does the Potency read?
**A.** inconclusive: 12.6 µM [inhibitor, single point]

**Q.** With O=C1c2ccc3c4c(ccc(c24)C(=O)N1NC(=O)C(F)(F)F)CC3 as the compound, how does the “activity change, negative = inhibition” value read?
**A.** inactive: 7.17%

**Q.** For COc1cccc(C(=O)N/N=C(\C)c2cccc(NC(=O)c3ccc(F)cc3)c2)c1OC, which Potency is on record?
**A.** inconclusive: 5.01 µM [inhibitor, partial curve, poor fit]

**Q.** With O=C1OC(c2ccc3c(c2)OCO3)N(C(=O)c2ccc(Cl)c(Cl)c2)c2ccccc21 (stereo unspecified) as the compound, how does the “activity change, negative = inhibition” value read?
**A.** inactive: -3.78%

**Q.** With Cc1ccc2c(c1)[C@H]1[C@H](CO2)[C@H](c2ccccc2)[C@]2(C)C(=O)Nc3ccc(Br)cc3C(=O)N12 as the compound, how does the Potency read?
**A.** inconclusive: 8.91 µM [inhibitor, single point]

**Q.** With N/C(=N\OC(=O)c1cccc2ccccc12)c1cccnc1 as the compound, how does the Potency read?
**A.** inconclusive: 6.31 µM [inhibitor, single point]

**Q.** Which Potency does the source give for O=C(/C=C/c1ccco1)Nc1ccc2nc3n(c(=O)c2c1)CCCC3 here?
**A.** active: 2 µM

**Q.** Which “activity change, negative = inhibition” value does the source give for S=C(NCc1cccs1)Nc1cccc2ccccc12 here?
**A.** inactive: -3.94%

**Q.** Which Potency does the source give for COc1ccccc1CN1CCC(CNS(=O)(=O)c2cc(-c3onc(C)c3C)ccc2OC)CC1 here?
**A.** inconclusive: 8.91 µM [inhibitor, partial curve]

**Q.** Which Potency does the source give for O=c1[nH]c(/C=C/c2ccccc2Cl)nc2ccccc12 here?
**A.** inconclusive: 1.26 µM [inhibitor, full curve, poor fit]

**Q.** With CCOc1ccc(NCc2cccn2-c2nnc(N3CCC(C(=O)NCCCN4CCCCC4CC)CC3)s2)cc1 (stereo unspecified) as the compound, how does the Potency read?
**A.** inconclusive: 10 µM [inhibitor, single point]

**Q.** For C=CCOc1ccccc1CN1CCC(Oc2ccc(C(=O)N3CCCC3)cc2)CC1, which Potency is on record?
**A.** inconclusive: 3.55 µM [inhibitor, partial curve]

**Q.** For O=C(N/N=C/c1ccc(O)cc1)c1csc2c1CCCC2, which “activity change, negative = inhibition” value is on record?
**A.** inactive: -9.34%

**Q.** Which Potency does the source give for Cc1ccc(C(=O)CCS(=O)(=O)c2ccc(F)cc2)cc1 here?
**A.** active: 11.2 µM

**Q.** With CC(C)Oc1ccc(C(CCNCc2ccc(O)cc2)c2ccccc2)cc1 (stereo unspecified) as the compound, how does the Potency read?
**A.** inconclusive: 12.6 µM [inhibitor, single point]

**Q.** Which Potency does the source give for Cc1cccc(CS(=O)(=O)Cc2ccc(C(=O)NCc3ccccc3)o2)c1 here?
**A.** inconclusive: 8.91 µM [inhibitor, single point]

**Q.** With CCN1CCN(C2=C(NS(=O)(=O)c3ccc(Br)cc3)C(=O)c3ccccc3C2=O)CC1 as the compound, how does the Potency read?
**A.** inconclusive: 6.31 µM [inhibitor, partial curve, poor fit]

**Q.** Which Potency does the source give for C=CCOc1ccccc1CN1CCC(Oc2ccc(C(=O)N3CCCCC3)cc2)CC1 here?
**A.** inconclusive: 11.2 µM [inhibitor, partial curve, poor fit]

**Q.** Which “activity change, negative = inhibition” value does the source give for COc1cccc(NC(=O)NNC(=O)CCc2ccc(O)c(O)c2)c1 here?
**A.** inactive: 1.37%

**Q.** With C=CC[C@H](CC(=O)N(CCO)Cc1ccccc1)C(=O)N[C@H](COC(=O)[C@@H](CC=C)Cc1ccc(F)cc1)Cc1c[nH]c2ccccc12 as the compound, how does the Potency read?
**A.** inconclusive: 12.6 µM [inhibitor, single point]

**Q.** Which Potency does the source give for CCn1c2ccccc2c2cc(NC(=O)c3cc(OC)cc(OC)c3)ccc21 here?
**A.** active: 2.24 µM

**Q.** With Cc1cc(C(=O)N/N=C/c2cc([N+](=O)[O-])cc(C)c2O)n[nH]1 as the compound, how does the Potency read?
**A.** inconclusive: 4.47 µM [inhibitor, partial curve]

**Q.** With O=C(Nc1nc2ccccc2c(=O)s1)c1ccco1 as the compound, how does the Potency read?
**A.** inconclusive: 3.55 µM [inhibitor, partial curve]

**Q.** For Cc1noc(C)c1NC(=O)Nc1cccc2c1O[C@H](CN(C)C(=O)NC(C)C)[C@@H](C)CN([C@H](C)CO)C2=O, which “activity change, negative = inhibition” value is on record?
**A.** inactive: 3.73%

**Q.** Which Potency does the source give for CN(CC(=O)Nc1ccccc1C(=O)NC1CC1)Cc1ccc(Cl)cc1 here?
**A.** inconclusive: 0.0126 µM [inhibitor, full curve, poor fit]

**Q.** With Cc1cc(C(=O)NCC(=O)OC(C)C(=O)N2CCOCC2)ccc1[N+](=O)[O-] (stereo unspecified) as the compound, how does the Potency read?
**A.** inconclusive: 2 µM [inhibitor, partial curve, poor fit]

**Q.** With CC(C)(C)c1ccc(C(=O)Nc2ccccc2Cl)cc1 as the compound, how does the Potency read?
**A.** inconclusive: 10 µM [inhibitor, partial curve, poor fit]

**Q.** With CC(=O)c1cccc(OCC(=O)Nc2cccc(C(=O)Nc3c(C)n(C)n(-c4ccccc4)c3=O)c2)c1 as the compound, how does the “activity change, negative = inhibition” value read?
**A.** inactive: 2.05%

**Q.** With CC1(C)CC(Nc2ccc(Nc3ccccc3)cc2)CC(C)(C)N1 as the compound, how does the Potency read?
**A.** inconclusive: 2.82 µM [inhibitor, partial curve, poor fit]

**Q.** Which Potency does the source give for Fc1ccc(NC(=S)N2CCN(C/C=C/c3ccccc3)CC2)c(F)c1 here?
**A.** inconclusive: 7.94 µM [inhibitor, partial curve, poor fit]

**Q.** With Cc1occc1C(=O)N/N=C/c1ccccn1 as the compound, how does the Potency read?
**A.** inconclusive: 5.62 µM [inhibitor, partial curve, poor fit]

**Q.** Which “activity change, negative = inhibition” value does the source give for COc1cc(CN2CCN(c3ccccc3F)CC2)c([N+](=O)[O-])cc1OC here?
**A.** inactive: -10.7%

**Q.** Which “activity change, negative = inhibition” value does the source give for Cc1ccc(-c2cc(C(=O)N3CCOCC3)no2)cc1 here?
**A.** inactive: -10.6%

**Q.** Which Potency does the source give for COc1cc(-c2nc3cnccn3c2Nc2ccc(C)cc2)ccc1O here?
**A.** inconclusive: 7.08 µM [inhibitor, single point]
